# Laboratory results from the supplement of paper PMC7666118.
# By UniProt entry, the sequences of proteins in these tests, tags left out. Where a name states a change or a piece, a line headed by the entry shows the natural chain unless it says otherwise.
# UniProt O43681: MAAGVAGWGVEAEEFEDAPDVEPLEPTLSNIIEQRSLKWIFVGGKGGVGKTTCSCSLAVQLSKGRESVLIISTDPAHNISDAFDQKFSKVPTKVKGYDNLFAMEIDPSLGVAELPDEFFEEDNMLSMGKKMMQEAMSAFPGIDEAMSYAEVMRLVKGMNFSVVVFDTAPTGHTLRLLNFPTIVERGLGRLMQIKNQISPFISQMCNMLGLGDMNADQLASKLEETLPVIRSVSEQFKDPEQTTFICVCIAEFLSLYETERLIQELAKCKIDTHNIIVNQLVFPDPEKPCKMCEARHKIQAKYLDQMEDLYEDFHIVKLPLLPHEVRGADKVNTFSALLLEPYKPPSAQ
# UniProt P61421, whole entry: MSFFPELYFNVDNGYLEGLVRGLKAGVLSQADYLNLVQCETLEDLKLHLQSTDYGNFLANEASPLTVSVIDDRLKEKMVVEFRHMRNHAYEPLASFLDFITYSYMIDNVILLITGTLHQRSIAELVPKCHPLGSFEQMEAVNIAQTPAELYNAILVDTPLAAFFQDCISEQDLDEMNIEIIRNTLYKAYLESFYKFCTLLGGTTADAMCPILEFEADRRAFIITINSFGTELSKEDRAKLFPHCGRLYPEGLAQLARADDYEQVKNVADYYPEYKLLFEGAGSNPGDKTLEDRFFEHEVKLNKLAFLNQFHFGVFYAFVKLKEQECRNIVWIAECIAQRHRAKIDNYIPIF
# UniProt Q676U5: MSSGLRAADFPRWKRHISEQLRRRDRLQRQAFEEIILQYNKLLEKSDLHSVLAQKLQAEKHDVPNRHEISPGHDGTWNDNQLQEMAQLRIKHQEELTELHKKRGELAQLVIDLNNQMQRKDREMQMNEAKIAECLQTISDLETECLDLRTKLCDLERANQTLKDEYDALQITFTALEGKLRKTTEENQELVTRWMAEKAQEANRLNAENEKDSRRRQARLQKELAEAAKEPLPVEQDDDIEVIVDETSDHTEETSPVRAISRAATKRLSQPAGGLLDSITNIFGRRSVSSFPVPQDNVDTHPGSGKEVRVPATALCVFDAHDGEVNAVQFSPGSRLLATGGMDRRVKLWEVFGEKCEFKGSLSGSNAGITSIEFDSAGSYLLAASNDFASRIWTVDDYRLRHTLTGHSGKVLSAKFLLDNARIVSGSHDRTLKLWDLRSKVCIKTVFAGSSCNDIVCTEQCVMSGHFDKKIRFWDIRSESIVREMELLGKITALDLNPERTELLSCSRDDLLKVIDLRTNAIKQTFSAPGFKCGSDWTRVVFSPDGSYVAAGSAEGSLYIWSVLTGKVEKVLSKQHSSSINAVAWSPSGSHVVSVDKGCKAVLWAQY
# UniProt Q7KYR7: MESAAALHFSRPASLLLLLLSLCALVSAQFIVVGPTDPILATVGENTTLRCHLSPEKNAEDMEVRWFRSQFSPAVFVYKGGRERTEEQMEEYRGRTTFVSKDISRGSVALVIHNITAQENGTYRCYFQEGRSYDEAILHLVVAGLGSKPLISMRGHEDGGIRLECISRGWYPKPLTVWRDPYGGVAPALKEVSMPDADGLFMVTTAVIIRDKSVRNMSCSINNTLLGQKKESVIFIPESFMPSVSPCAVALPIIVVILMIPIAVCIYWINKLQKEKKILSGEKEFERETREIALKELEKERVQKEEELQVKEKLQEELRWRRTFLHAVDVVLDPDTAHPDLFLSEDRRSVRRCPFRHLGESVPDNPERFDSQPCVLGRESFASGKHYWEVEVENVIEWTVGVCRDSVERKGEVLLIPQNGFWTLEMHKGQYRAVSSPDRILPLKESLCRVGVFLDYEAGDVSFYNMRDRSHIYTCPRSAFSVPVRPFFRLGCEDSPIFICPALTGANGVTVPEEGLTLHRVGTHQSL
# UniProt Q92747, whole entry: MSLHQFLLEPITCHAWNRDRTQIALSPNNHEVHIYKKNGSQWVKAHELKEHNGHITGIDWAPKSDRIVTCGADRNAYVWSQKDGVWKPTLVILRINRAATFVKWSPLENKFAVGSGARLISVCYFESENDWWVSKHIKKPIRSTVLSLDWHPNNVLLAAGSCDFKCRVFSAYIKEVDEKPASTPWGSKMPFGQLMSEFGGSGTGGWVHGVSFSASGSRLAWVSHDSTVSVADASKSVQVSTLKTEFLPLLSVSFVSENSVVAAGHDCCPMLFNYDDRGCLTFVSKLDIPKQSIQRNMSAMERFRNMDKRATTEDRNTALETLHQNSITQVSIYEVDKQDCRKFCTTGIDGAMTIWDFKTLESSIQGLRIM
# UniProt P32121, whole entry: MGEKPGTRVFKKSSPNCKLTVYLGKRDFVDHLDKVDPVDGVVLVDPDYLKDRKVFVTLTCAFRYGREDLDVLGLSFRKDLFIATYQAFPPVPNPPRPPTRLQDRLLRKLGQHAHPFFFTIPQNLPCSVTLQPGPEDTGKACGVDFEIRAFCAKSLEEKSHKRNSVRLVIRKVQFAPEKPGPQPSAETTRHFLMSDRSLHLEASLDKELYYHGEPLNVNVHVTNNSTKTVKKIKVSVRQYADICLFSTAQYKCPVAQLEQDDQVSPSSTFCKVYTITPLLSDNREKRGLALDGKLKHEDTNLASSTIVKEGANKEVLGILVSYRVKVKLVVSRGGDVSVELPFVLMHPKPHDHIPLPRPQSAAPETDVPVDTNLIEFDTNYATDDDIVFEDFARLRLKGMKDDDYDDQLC
# UniProt P49407: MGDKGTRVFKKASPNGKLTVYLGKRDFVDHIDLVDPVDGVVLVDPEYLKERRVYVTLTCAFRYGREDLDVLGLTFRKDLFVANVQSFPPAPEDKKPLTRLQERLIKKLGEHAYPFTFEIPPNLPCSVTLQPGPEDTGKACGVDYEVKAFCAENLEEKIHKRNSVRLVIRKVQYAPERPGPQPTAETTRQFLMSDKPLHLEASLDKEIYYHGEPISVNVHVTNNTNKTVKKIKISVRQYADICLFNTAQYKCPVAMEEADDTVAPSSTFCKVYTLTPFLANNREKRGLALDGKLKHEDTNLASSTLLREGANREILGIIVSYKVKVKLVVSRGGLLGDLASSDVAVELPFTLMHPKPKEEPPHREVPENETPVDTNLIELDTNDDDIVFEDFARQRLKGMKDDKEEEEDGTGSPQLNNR
# UniProt Q06055: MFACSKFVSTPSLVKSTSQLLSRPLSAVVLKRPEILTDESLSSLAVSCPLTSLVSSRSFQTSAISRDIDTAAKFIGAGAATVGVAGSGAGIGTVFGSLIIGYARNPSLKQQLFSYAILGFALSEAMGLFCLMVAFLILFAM
# UniProt P98196: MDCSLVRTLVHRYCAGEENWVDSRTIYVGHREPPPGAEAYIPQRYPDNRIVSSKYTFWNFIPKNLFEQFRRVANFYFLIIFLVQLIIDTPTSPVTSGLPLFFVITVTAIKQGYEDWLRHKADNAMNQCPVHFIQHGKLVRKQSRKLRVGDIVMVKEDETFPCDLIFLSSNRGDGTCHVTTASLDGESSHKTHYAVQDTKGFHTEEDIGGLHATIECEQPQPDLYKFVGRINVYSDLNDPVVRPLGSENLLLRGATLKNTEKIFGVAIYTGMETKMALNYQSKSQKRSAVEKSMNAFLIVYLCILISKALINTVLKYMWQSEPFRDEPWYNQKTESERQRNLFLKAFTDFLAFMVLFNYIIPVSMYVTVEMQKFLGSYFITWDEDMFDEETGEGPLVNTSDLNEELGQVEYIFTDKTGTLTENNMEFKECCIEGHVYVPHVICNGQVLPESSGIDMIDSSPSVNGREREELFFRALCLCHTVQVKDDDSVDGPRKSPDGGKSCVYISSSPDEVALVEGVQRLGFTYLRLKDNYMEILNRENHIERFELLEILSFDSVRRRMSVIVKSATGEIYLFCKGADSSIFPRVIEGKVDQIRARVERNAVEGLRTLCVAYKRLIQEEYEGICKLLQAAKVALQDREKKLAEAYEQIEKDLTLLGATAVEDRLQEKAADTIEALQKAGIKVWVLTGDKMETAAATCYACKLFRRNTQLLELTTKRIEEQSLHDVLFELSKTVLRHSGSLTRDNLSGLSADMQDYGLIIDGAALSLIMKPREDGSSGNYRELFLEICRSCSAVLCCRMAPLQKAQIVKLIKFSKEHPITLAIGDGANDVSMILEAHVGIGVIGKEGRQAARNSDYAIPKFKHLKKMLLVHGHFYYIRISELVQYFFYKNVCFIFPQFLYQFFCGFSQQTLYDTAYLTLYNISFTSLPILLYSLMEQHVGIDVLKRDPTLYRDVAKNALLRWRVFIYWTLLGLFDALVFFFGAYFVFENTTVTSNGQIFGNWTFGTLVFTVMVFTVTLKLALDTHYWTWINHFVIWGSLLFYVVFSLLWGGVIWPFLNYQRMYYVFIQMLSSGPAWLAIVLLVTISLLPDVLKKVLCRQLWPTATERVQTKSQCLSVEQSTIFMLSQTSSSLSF
# UniProt Q12982: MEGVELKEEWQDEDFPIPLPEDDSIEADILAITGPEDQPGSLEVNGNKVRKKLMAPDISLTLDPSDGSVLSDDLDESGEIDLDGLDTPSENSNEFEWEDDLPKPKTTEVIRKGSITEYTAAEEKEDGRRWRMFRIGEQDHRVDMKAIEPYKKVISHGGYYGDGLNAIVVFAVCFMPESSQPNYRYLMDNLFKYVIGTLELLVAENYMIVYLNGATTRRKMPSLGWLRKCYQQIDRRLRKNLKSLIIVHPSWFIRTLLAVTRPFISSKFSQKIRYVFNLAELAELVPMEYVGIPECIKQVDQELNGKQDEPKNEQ
# UniProt P18850: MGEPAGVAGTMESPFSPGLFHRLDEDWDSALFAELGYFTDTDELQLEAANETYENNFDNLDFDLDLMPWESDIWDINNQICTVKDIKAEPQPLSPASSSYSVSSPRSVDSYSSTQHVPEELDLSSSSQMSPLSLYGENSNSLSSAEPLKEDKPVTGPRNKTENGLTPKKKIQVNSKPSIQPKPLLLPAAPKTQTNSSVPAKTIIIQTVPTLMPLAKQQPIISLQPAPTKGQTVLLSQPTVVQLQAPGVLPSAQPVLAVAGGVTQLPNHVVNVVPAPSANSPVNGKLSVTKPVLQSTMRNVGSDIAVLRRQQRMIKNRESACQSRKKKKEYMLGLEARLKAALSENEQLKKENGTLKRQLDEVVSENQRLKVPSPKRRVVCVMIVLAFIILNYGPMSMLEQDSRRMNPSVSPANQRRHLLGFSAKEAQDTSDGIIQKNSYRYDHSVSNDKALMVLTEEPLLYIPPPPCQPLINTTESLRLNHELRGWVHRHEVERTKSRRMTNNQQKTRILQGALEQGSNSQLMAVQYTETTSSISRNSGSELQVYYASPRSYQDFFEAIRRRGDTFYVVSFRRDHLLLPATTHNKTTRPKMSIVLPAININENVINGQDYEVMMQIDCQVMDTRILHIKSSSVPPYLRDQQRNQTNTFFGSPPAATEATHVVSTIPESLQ
# UniProt P25440, whole entry, looked up: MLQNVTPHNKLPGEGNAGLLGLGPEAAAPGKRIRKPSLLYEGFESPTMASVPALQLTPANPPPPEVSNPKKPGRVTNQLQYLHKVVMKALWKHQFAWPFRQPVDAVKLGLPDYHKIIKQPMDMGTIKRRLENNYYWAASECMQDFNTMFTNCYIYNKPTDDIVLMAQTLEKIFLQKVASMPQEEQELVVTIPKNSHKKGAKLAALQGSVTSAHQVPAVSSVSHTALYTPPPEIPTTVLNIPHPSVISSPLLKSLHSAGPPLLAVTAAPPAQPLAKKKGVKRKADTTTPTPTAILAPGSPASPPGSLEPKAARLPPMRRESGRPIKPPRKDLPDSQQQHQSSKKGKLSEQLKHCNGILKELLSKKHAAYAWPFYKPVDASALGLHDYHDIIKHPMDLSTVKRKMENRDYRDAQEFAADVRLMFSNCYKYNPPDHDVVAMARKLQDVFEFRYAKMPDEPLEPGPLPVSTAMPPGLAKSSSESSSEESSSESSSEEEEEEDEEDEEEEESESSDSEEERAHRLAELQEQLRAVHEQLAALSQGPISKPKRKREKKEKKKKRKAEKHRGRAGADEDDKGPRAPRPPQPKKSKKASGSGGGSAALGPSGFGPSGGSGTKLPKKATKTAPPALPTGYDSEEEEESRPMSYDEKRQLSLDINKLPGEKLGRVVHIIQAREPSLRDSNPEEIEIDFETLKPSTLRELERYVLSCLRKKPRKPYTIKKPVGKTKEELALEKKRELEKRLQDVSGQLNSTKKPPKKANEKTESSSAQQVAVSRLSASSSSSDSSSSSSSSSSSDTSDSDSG
# UniProt Q9HCU9: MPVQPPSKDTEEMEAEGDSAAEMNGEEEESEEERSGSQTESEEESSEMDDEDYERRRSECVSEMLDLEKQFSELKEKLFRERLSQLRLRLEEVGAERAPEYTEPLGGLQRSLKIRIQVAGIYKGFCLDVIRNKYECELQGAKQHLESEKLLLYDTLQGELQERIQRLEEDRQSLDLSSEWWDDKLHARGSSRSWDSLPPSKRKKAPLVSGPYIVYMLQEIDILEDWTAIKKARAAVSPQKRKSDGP
# UniProt Q8N6S5: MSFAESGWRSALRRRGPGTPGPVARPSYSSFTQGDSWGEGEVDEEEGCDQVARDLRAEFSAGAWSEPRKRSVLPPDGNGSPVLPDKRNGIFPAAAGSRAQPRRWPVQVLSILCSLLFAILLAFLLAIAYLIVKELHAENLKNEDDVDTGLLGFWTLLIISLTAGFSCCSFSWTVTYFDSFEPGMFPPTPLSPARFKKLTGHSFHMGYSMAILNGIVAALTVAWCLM
# The list shows a part of the results.
# Compound: COc1ccc(Cn2ccc3ccc(C(=O)NO)cc32)cc1
# Assay: dose-dependent thermal stabilisation call (2D-TPP, DLPTP, 10% FDR) (binary (1 = stabilised)); higher = stabilised by the compound
# Details: system: HL-60 intact cells; concentration range 0.04-10 µM
row,Target,dose-dependent thermal stabilisation call
1,ASNA1 (UniProt O43681),inactive: 0
2,ARL8B (UniProt Q9NVJ2),inactive: 0
3,ATP6V0D1 (UniProt P61421),inactive: 0
4,ATG16L1 (UniProt Q676U5),inactive: 0
5,BCL2 (UniProt P10415),inactive: 0
6,BTN2A1 (UniProt Q7KYR7),inactive: 0
7,ARPC1A (UniProt Q92747),inactive: 0
8,ARRB2 (UniProt P32121),inactive: 0
9,B2M (UniProt P61769),inactive: 0
10,ARRB1 (UniProt P49407),inactive: 0
11,ATL3 (UniProt Q6DD88),inactive: 0
12,ATP5G2 (UniProt Q06055),inactive: 0
13,BCL2L2 (UniProt Q92843),inactive: 0
14,ATP6V1B2 (UniProt P21281),inactive: 0
15,C10ORF2 (UniProt Q96RR1),inactive: 0
16,ATP5J2 (UniProt P56134),inactive: 0
17,ATRN (UniProt O75882),inactive: 0
18,ATP11A (UniProt P98196),inactive: 0
19,BNIP2 (UniProt Q12982),inactive: 0
20,ATF6 (UniProt P18850),inactive: 0
21,BRD2 (UniProt P25440),inactive: 0
22,ATF1 (UniProt P18846),inactive: 0
23,BRMS1 (UniProt Q9HCU9),inactive: 0
24,BAG1 (UniProt Q99933),inactive: 0
25,ARL6IP6 (UniProt Q8N6S5),inactive: 0
26,C10ORF137 (UniProt Q3B7T1),inactive: 0
27,ARV1 (UniProt Q9H2C2),inactive: 0

# Fetched one by one from the entries so far:
row,Target,dose-dependent thermal stabilisation call
17,ATRN (UniProt O75882),inactive: 0
26,C10ORF137 (UniProt Q3B7T1),inactive: 0
